# This is one part of the list.
# B1: AT5G17240(42) (Arabidopsis thaliana), Q6NQJ8 (protein)
# chain: MDLEHQTMETFLRWAAEIGISDSIDSSRFRDSCLGHSLSVSDFPDAGGRGLGAARELKKGELVLKVPRKALMTTESIIAKDLKLSDAVNLHNSLSSTQILSVCLLYEMSKEKKSFWYPYLFHIPRDYDLLATFGNFEKQALQVEDAVWATEKATAKCQSEWKEAGSLMKELELKPKFRSFQAWLWASATISSRTLHVPWDSAGCLCPVGDLFNYDAPGDYSNTPQGPESANNVEEAGLVVETHSERLTDGGFEEDVNAYCLYARRNYQLGEQVLLCYGTYTNLELLEHYGFMLEENSNDKVFIPLETSLFSLASSWPKDSLYIHQDGKLSFALISTLRLWLIPQSQRDKSVMRLVYAGSQISVKNEILVMKWMSEKCGSVLRDLPTSVTEDTVLLHNIDKLQDPELRLEQKETEAFGSEVRAFLDANCLWDVTVLSGKPIEFSRKTSRMLSKWRWSVQWRLSYKRTLADCISYCNEKMNNLLGTQDRLRDL
# Tests used:
# Experiment in all cases: glycan array binding signal (z-score within array); higher = stronger binding
# Details in all cases: glycan notation: IUPAC condensed, linker removed
# Fuc(a1-2)Gal = molecular target: Fuc(a1-2)Gal
# Outline: (§1)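 Glycan array data were curated from 3228 arrays in the Consortium for Functional Glycomics database and kept only where the protein sequence was available. Glycan names were converted to IUPAC-condensed notation, and columns mapping to the same glycan were averaged. The binding signal is a within-array Z-score, averaged across arrays of the same protein sequence at different concentrations or buffers and across linkers. Negative Z-scores can be read as non-binding.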
# Fuc(a1-2)Gal(b1-3)GalNAc = molecular target: Fuc(a1-2)Gal(b1-3)GalNAc
# Outline: as §1
# [1] = molecular target: Fuc(a1-2)Gal(b1-3)GalNAc(a1-3)[Fuc(a1-2)]Gal(b1-4)Glc
# Outline: as §1
# [2] = molecular target: Fuc(a1-2)Gal(b1-3)GalNAc(a1-3)[Fuc(a1-2)]Gal(b1-4)GlcNAc
# Outline: as §1
# [3] = molecular target: Fuc(a1-2)Gal(b1-3)GalNAc(b1-3)Gal
# Outline: as §1
# [4] = molecular target: Fuc(a1-2)Gal(b1-3)GalNAc(b1-3)Gal(a1-4)Gal(b1-4)Glc
# Outline: as §1
# [5] = molecular target: Fuc(a1-2)Gal(b1-3)GalNAc(b1-4)[Neu5Ac(a2-3)]Gal(b1-4)Glc
# Outline: as §1
# Fuc(a1-2)Gal(b1-3)GlcNAc = molecular target: Fuc(a1-2)Gal(b1-3)GlcNAc
# Outline: as §1
# [6] = molecular target: Fuc(a1-2)Gal(b1-3)GlcNAc(b1-2)Man(a1-3)[Fuc(a1-2)Gal(b1-3)GlcNAc(b1-2)Man(a1-6)]Man(b1-4)GlcNAc(b1-4)GlcNAc
# Outline: as §1
# [7] = molecular target: Fuc(a1-2)Gal(b1-3)GlcNAc(b1-2)Man(a1-3)[Fuc(a1-2)Gal(b1-3)GlcNAc(b1-2)Man(a1-6)]Man(b1-4)GlcNAc(b1-4)[Fuc(a1-6)]GlcNAc
# Outline: as §1
# [8] = molecular target: Fuc(a1-2)Gal(b1-3)GlcNAc(b1-3)Gal(b1-4)Glc
# Outline: as §1
# [9] = molecular target: Fuc(a1-2)Gal(b1-3)GlcNAc(b1-3)GalNAc
# Outline: as §1
# [10] = molecular target: Fuc(a1-2)Gal(b1-3)GlcNAc(b1-3)[Fuc(a1-2)Gal(b1-3)GlcNAc(b1-6)]GalNAc
# Outline: as §1
# [11] = molecular target: Fuc(a1-2)Gal(b1-3)GlcNAc(b1-3)[Gal(b1-4)GlcNAc(b1-6)]Gal(b1-4)Glc
# Outline: as §1
# [12] = molecular target: Fuc(a1-2)Gal(b1-3)GlcNAc(b1-3)[Neu5Ac(a2-6)Gal(b1-4)GlcNAc(b1-6)]Gal(b1-4)Glc
# Outline: as §1
# [13] = molecular target: Fuc(a1-2)Gal(b1-3)GlcNAc6S
# Outline: as §1
# [14] = molecular target: Fuc(a1-2)Gal(b1-3)[Fuc(a1-4)]GlcNAc
# Outline: as §1
# [15] = molecular target: Fuc(a1-2)Gal(b1-3)[Fuc(a1-4)]GlcNAc(b1-2)Man(a1-3)[Fuc(a1-2)Gal(b1-3)[Fuc(a1-4)]GlcNAc(b1-2)Man(a1-3)]Man(b1-4)GlcNAc(b1-4)GlcNAc
# Outline: as §1
# [16] = molecular target: Fuc(a1-2)Gal(b1-3)[Fuc(a1-4)]GlcNAc(b1-2)Man(a1-3)[Fuc(a1-2)Gal(b1-3)[Fuc(a1-4)]GlcNAc(b1-2)Man(a1-6)]Man(b1-4)GlcNAc(b1-4)[Fuc(a1-6)]GlcNAc(b1-4)[Fuc(a1-6)]GlcNAc
# Outline: as §1
# [17] = molecular target: Fuc(a1-2)Gal(b1-3)[Fuc(a1-4)]GlcNAc(b1-3)[Fuc(a1-3)[Gal(b1-4)]GlcNAc(b1-6)]Gal(b1-4)Glc
# Outline: as §1
# [18] = molecular target: Fuc(a1-2)Gal(b1-3)[Fuc(a1-4)]GlcNAc(b1-3)[Gal(b1-4)GlcNAc(b1-6)]Gal(b1-4)Glc
# Outline: as §1
# [19] = molecular target: Fuc(a1-2)Gal(b1-4)Fuc(a1-3)]GlcNAc(b1-2)Man(a1-3)[Fuc(a1-2)Gal(b1-4)[Fuc(a1-3)]GlcNAc(b1-2)Man(a1-6)]Man(b1-4)GlcNAc(b1-4)GlcNAc
# Outline: as §1
# Fuc(a1-2)Gal(b1-4)Glc = molecular target: Fuc(a1-2)Gal(b1-4)Glc
# Outline: as §1
# Fuc(a1-2)Gal(b1-4)Glc6S = molecular target: Fuc(a1-2)Gal(b1-4)Glc6S
# Outline: as §1
# Fuc(a1-2)Gal(b1-4)GlcNAc = molecular target: Fuc(a1-2)Gal(b1-4)GlcNAc
# Outline: as §1
# [20] = molecular target: Fuc(a1-2)Gal(b1-4)GlcNAc(b1-2)Man
# Outline: as §1
# [21] = molecular target: Fuc(a1-2)Gal(b1-4)GlcNAc(b1-2)Man(a1-3)[Fuc(a1-2)Gal(b1-4)GlcNAc(b1-2)Man(a1-6)]Man(b1-4)GlcNAc(b1-4)GlcNAc
# Outline: as §1
# [22] = molecular target: Fuc(a1-2)Gal(b1-4)GlcNAc(b1-2)Man(a1-3)[Fuc(a1-2)Gal(b1-4)GlcNAc(b1-2)Man(a1-6)]Man(b1-4)GlcNAc(b1-4)[Fuc(a1-6)]GlcNAc
# Outline: as §1
# [23] = molecular target: Fuc(a1-2)Gal(b1-4)GlcNAc(b1-2)[Fuc(a1-2)Gal(b1-4)GlcNAc(b1-4)]Man(a1-3)[Fuc(a1-2)Gal(b1-4)GlcNAc(b1-2)Man(a1-6)]Man(b1-4)GlcNAc(b1-4)GlcNAc
# Outline: as §1
# [24] = molecular target: Fuc(a1-2)Gal(b1-4)GlcNAc(b1-3)Gal(b1-4)GlcNAc
# Outline: as §1
# [25] = molecular target: Fuc(a1-2)Gal(b1-4)GlcNAc(b1-3)Gal(b1-4)GlcNAc(b1-2)Man(a1-3)[Fuc(a1-2)Gal(b1-4)GlcNAc(b1-3)Gal(b1-4)GlcNAc(b1-2)Man(a1-6)]Man(b1-4)GlcNAc(b1-4)GlcNAc
# Outline: as §1
# [26] = molecular target: Fuc(a1-2)Gal(b1-4)GlcNAc(b1-3)Gal(b1-4)GlcNAc(b1-3)Gal(b1-4)GlcNAc
# Outline: as §1
# [27] = molecular target: Fuc(a1-2)Gal(b1-4)GlcNAc(b1-3)GalNAc
# Outline: as §1
# [28] = molecular target: Fuc(a1-2)Gal(b1-4)GlcNAc(b1-3)[Fuc(a1-2)Gal(b1-4)GlcNAc(b1-6)]GalNAc
# Outline: as §1
# [29] = molecular target: Fuc(a1-2)Gal(b1-4)GlcNAc(b1-3)[Fuc(a1-3)[Gal(b1-4)]GlcNAc(b1-6)]Gal(b1-4)Glc
# Outline: as §1
# [30] = molecular target: Fuc(a1-2)Gal(b1-4)GlcNAc(b1-6)GalNAc
# Outline: as §1
# [31] = molecular target: Fuc(a1-2)Gal(b1-4)GlcNAc6S
# Outline: as §1
# [32] = molecular target: Fuc(a1-2)Gal(b1-4)[Fuc(a1-3)]GlcNAc
# Outline: as §1
# [33] = molecular target: Fuc(a1-2)Gal(b1-4)[Fuc(a1-3)]GlcNAc(b1-2)Man(a1-3)[Fuc(a1-2)Gal(b1-4)[Fuc(a1-3)]GlcNAc(b1-2)Man(a1-6)]Man(b1-4)GlcNAc(b1-4)[Fuc(a1-6)]GlcNAc
# Outline: as §1
# [34] = molecular target: Fuc(a1-2)Gal(b1-4)[Fuc(a1-3)]GlcNAc(b1-2)[Fuc(a1-2)Gal(b1-4)[Fuc(a1-3)]GlcNAc(b1-4)]Man(a1-3)[Fuc(a1-2)Gal(b1-4)[Fuc(a1-3)]GlcNAc(b1-2)Man(a1-6)]Man(b1-4)GlcNAc(b1-4)GlcNAc
# Outline: as §1
# [35] = molecular target: Fuc(a1-2)Gal(b1-4)[Fuc(a1-3)]GlcNAc(b1-3)Gal(b1-4)[Fuc(a1-3)]GlcNAc
# Outline: as §1
# [36] = molecular target: Fuc(a1-2)Gal(b1-4)[Fuc(a1-3)]GlcNAc(b1-3)Gal(b1-4)[Fuc(a1-3)]GlcNAc(b1-3)Gal(b1-4)[Fuc(a1-3)]GlcNAc
# Outline: as §1
# [37] = molecular target: Fuc(a1-2)Gal(b1-4)[Fuc(a1-3)]GlcNAc(b1-3)GalNAc
# Outline: as §1
# [38] = molecular target: Fuc(a1-2)Gal(b1-4)[Fuc(a1-3)]GlcNAc(b1-3)[Neu5Ac(a2-6)Gal(b1-4)GlcNAc(b1-6)]Gal(b1-4)Glc
# Outline: as §1
# [39] = molecular target: Fuc(a1-2)Gal3S(b1-4)GlcNAc
# Outline: as §1
binder,measurement,setting,value
B1,glycan array binding signal (z-score),Fuc(a1-2)Gal,-0.054
same,glycan array binding signal (z-score),Fuc(a1-2)Gal(b1-3)GalNAc,-0.459
same,glycan array binding signal (z-score),[1],0.123
same,glycan array binding signal (z-score),[2],-0.485
same,glycan array binding signal (z-score),[3],0.427
same,glycan array binding signal (z-score),[4],0.174
same,glycan array binding signal (z-score),[5],0.062
same,glycan array binding signal (z-score),Fuc(a1-2)Gal(b1-3)GlcNAc,-0.094
same,glycan array binding signal (z-score),[6],-0.113
same,glycan array binding signal (z-score),[7],0.063
same,glycan array binding signal (z-score),[8],0.124
same,glycan array binding signal (z-score),[9],0.114
same,glycan array binding signal (z-score),[10],0.001
same,glycan array binding signal (z-score),[11],0.636
same,glycan array binding signal (z-score),[12],-0.128
same,glycan array binding signal (z-score),[13],0.337
same,glycan array binding signal (z-score),[14],-0.263
same,glycan array binding signal (z-score),[15],-0.056
same,glycan array binding signal (z-score),[16],0.42
same,glycan array binding signal (z-score),[17],0.294
same,glycan array binding signal (z-score),[18],-0.39
same,glycan array binding signal (z-score),[19],-0.164
same,glycan array binding signal (z-score),Fuc(a1-2)Gal(b1-4)Glc,-0.258
same,glycan array binding signal (z-score),Fuc(a1-2)Gal(b1-4)Glc6S,0.452
same,glycan array binding signal (z-score),Fuc(a1-2)Gal(b1-4)GlcNAc,-0.267
same,glycan array binding signal (z-score),[20],-0.706
same,glycan array binding signal (z-score),[21],-0.437
same,glycan array binding signal (z-score),[22],-0.089
same,glycan array binding signal (z-score),[23],-0.468
same,glycan array binding signal (z-score),[24],-0.132
same,glycan array binding signal (z-score),[25],0.478
same,glycan array binding signal (z-score),[26],-0.551
same,glycan array binding signal (z-score),[27],0.068
same,glycan array binding signal (z-score),[28],-0.658
same,glycan array binding signal (z-score),[29],-0.373
same,glycan array binding signal (z-score),[30],0.065
same,glycan array binding signal (z-score),[31],0.365
same,glycan array binding signal (z-score),[32],-0.241
same,glycan array binding signal (z-score),[33],0.299
same,glycan array binding signal (z-score),[34],0.365
same,glycan array binding signal (z-score),[35],0.458
same,glycan array binding signal (z-score),[36],0.313
same,glycan array binding signal (z-score),[37],0.035
same,glycan array binding signal (z-score),[38],-0.37
same,glycan array binding signal (z-score),[39],0.252

# Copied from the listing (two entries):
binder,measurement,setting,value
B1,glycan array binding signal (z-score),[7],0.063
same,glycan array binding signal (z-score),[8],0.124

# From the supplement of paper PMC8728848
